Some of these results come from one statement about several compounds together. Some compounds share one range, which may span the group rather than tell each member.
Assay: In vitro liver microsomal stability assay
Type: in vitro ADME
Conditions: 1 mg per mL liver microsome protein, NADPH-generating system, 5 microgram per mL compound, 37° C., 0-60 minutes, LC/MS/MS

| Compound | increase in degradation half-life as compared to the non-isotopically enriched drug |
| --- | --- |
| [2H]C([2H])([2H])c1ccc(-c2nc3ccc(C)cn3c2CC(=O)N(C)C)cc1 [d3-ambien, d3-N,N-dimethyl-2-(6-methyl-2-p-tolyl-imidazo[1,2-α]pyridine-3-yl)-acetamide] | 15-66% |
| [2H]c1c(C([2H])([2H])[2H])c([2H])n2c(CC(=O)N(C)C)c(-c3ccc(C)cc3)nc2c1[2H] [d6-ambien, d6-N,N-dimethyl-2-(6-methyl-2-p-tolyl-imidazo[1,2-α]pyridine-3-yl)-acetamide] | 15-66% |
| [2H]c1c([2H])c(C([2H])([2H])[2H])c([2H])c([2H])c1-c1nc2c([2H])c([2H])c(C([2H])([2H])[2H])c([2H])n2c1CC(=O)N(C)C [d13-ambien, d13-N,N-dimethyl-2-(6-methyl-2-p-tolyl-imidazo[1,2-α]pyridine-3-yl)-acetamide] | 15-66% |
